Experimental data: PubChem BioAssay AID686943 (Drosophila RNAi Screening Center, 2013)

Test: 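Search across the genome for regulators of signalling from receptor tyrosine kinase to ERK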 (primary screen)
Cell system: Drosophila S2R+ haemocyte-like cells expressing YFP-tagged ERK (Rolled)
Reagents: long dsRNA against Drosophila genes
Treatment: insulin stimulation versus unstimulated cells; dose and duration not given
Read-out: 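Per-plate z-scores of phospho-ERK immunostaining normalised to YFP-tagged ERK, measured with and without insulin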
Scale: replicate 1, z-score of dpERK with insulin: higher = more active ERK per ERK-YFP after insulin
In all, the deposit lists about 23,000 reagents; shown is a random part of those that have a named target and a result. 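Extra replicates exist only for a retested subset of genes; insulin dose and duration not given; both raised and lowered dpERK matter.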 Names joined by + are all predicted targets of the reagent. Not all columns of the deposit are shown. The record does not give: the amount of reagent, the time to read-out.

How did the screen score Sgf29 (SAGA-associated factor 29kDa) [DRSC04076]?
replicate 1, z-score of dpERK with insulin: 1.3

For CG32668 [DRSC18879], what does the deposit list?
replicate 1, z-score of dpERK with insulin: 1.08

How did the screen score CG8892 [DRSC03121]?
replicate 1, z-score of dpERK with insulin: -0.1

What did the screen give for CG18269 [DRSC02660]?
replicate 1, z-score of dpERK with insulin: -0.18

For CG17571 [DRSC01768], what does the deposit list?
replicate 1, z-score of dpERK with insulin: -0.35

With CG17571 [DRSC03755], how do the results read?
replicate 1, z-score of dpERK with insulin: 0.56

Which result is listed for CG3706 [DRSC18649]?
replicate 1, z-score of dpERK with insulin: 0.69

What is on record for Prosbeta3 (Proteasome beta3 subunit) [DRSC16801]?
replicate 1, z-score of dpERK with insulin: -6.2

What did the screen give for Ant2 (Adenine nucleotide translocase 2) [DRSC19330]?
replicate 1, z-score of dpERK with insulin: -1.12

With RpS23 (Ribosomal protein S23) [DRSC07169], what does the deposit list?
replicate 1, z-score of dpERK with insulin: -1.11

What is on record for CG9394 [DRSC04550]?
replicate 1, z-score of dpERK with insulin: 1.16

With CG17198 + CG17197 [DRSC15190], what does the deposit list?
replicate 1, z-score of dpERK with insulin: 1

What is on record for CG17198 + CG17197 [DRSC15191]?
replicate 1, z-score of dpERK with insulin: 0.66
